From ChEMBL document CHEMBL3988442, “University of Dundee, Small-Polar-MMV Screening Library” (2021).

Each number is a percent effect as filed.
How 0% and 100% were set is not recorded. Most values in the screen are low, and negative values occur.
Compounds were drawn at random from those tested, without regard to their results.
Two or more numbers in one place are separate tests of the same structure; such repeats can differ widely.

A: 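Growth of Mycobacterium tuberculosis over 3 days (7H9 medium with glucose and tyloxapol); the read-out is not stated. Compounds at 50 µM. Higher reads as more growth inhibition (inferred: compounds with an IC50 in retests scored well above the rest). Of about 69,000 compounds tested this way, about 760 (1.1%) reached 50% or more in at least one test.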
B: 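Phenotypic screen: M. tuberculosis growth, cholesterol and DPPC medium, 4 days; the read-out is not stated. Compounds at 50 µM. The record gives no direction; compounds that gave an IC50 in retests scored well above the rest, so higher reads as more growth inhibition. Of about 69,000 compounds tested this way, about 370 (0.54%) reached 50% or more in at least one test.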

structure	A	B
O=C1Nc2ccccc2CC12CCCN2Cc1ccccn1 (stereo not drawn)	28.77	15.96
Cc1ccccc1-n1cc(CN(C)C(=O)CC2C(=O)NCCN2C)cn1 (stereo not drawn)	24.37	-4.107
Cn1cnnc1C1CCCN(C(=O)c2cc(Cl)c(Cl)n2C)C1 (stereo not drawn)	-1.545	-2.123
Cc1ccc2oc(CN3CCn4nc(CCC(=O)O)cc4C3)c(C)c2c1	-10.96	15.97 and 2.242
CCN1CCCC1Cn1ccc2ccc(C(=O)OC)cc2c1=O (stereo not drawn)	-14	-6.36 and -4.842
CC(C)C(=O)N1CCC12CCCN(C(=O)c1ccccc1)C2 (stereo not drawn)	-8.457	-23.77
Cc1nnc(CN2CCC(Oc3ccc(C)c(C)c3)CC2)o1	29.02 and 10.86	-4.376
CCc1ncc(CN2CCN(c3cc(NC4CC4)nc(N)n3)CC2)cn1	-14.56	-3.19
COCC(=O)N1CCC(c2cc(C(F)(F)F)c3c(C)noc3n2)CC1	-0.2034	0.2892
CC(C(=O)NC(C)(C)C)S(=O)(=O)Cc1noc(C(C)(C)C)n1 (stereo not drawn)	-9.513	-20.97
O=C(Cc1ccccc1)N1CCC2(CC1)CC(Nc1cnccn1)CO2 (stereo not drawn)	12.3	2.423
COc1cccc(C(=O)Nc2cc(CC(C)C)nn2C)c1	33.49	-9.563
CCCn1nc(-c2nc(COc3ccccc3)no2)ccc1=O	39.73	22.22
CCN(CCCN1CCOCC1)C(=O)c1cnn(CC)c1	-19.82	-1.251 and -15.82
Cl.Clc1ccccc1OCCc1cc(C2CCNC2)n[nH]1 (stereo not drawn)	30.59	17.29
CC(C)c1cc(C2CCCN2Cc2nc(-c3ccco3)no2)no1 (stereo not drawn)	26.64	0.7837
[H][C@]12CNC[C@@]1(C(=O)N(C)Cc1cnccn1)CN(Cc1ccccc1)C2	-2.49	-22.64
FC1(F)CCN(Cc2ccccn2)CC12CCN(c1cnccn1)C2.O=C(O)C(F)(F)F.O=C(O)C(F)(F)F.O=C(O)C(F)(F)F (stereo not drawn)	-3.59	-1.1
Cc1ccccc1C(C)(C)CNC(=O)CCSc1nnnn1C	-4.228 and 0.1493	-5.65
CCOC(C)C(=O)Nc1ccnn1-c1ccccc1C (stereo not drawn)	0.5805 and 14.94	14.41
COc1cc(C(=O)N2CCCC(c3cc(C)[nH]n3)C2)ccc1C (stereo not drawn)	-22.43	-25.72
Cc1cc(CN2CCN(C(=O)NCc3c(C)noc3C)CC2)on1	14.53	-1.317
CC(CNS(=O)(=O)c1cccc(Cl)c1)N1CCN(C)CC1 (stereo not drawn)	7.903 and 14.08	5.15
COCCn1ccc2c(C(=O)NC(C)C)cccc21	22.21	-12.03
Cc1ccc([C@@H]2CN(C(=O)c3ccoc3C)C[C@H]2NC(=O)C2CC2)cc1	-56.81	-99.05
O=C(O)C(F)(F)F.[H][C@@]12CN(c3cccnc3)CC[C@]1([H])CN(c1nccc(C(F)(F)F)n1)C2	39.44	7.024
O=C(O)C(F)(F)F.O=C(O)C(F)(F)F.c1cncc(CN2CCc3ncnc(C4CC4)c3CC2)c1	-3.839 and -19.16	-11.68
CC(C)CC(NC(=O)c1cc(-c2cccn2C)n[nH]1)c1ncnn1C (stereo not drawn)	19.66 and -1.641	18.55
CCc1noc(C(C)N2CCc3c(ncn3C3CC3)C2)n1 (stereo not drawn)	-12.31	1.786
CC(C)c1nc(C2CCCN(C(=O)c3ccc4c(c3)OCO4)C2)no1 (stereo not drawn)	6.294	15.33
Cc1ccccc1OC1CN(Cc2c(C)nc3ccccn23)C1	47.16	3.517
CCCNC(=O)c1cc(Br)c2c(c1)OCCO2	13.43	12.36
CC(C)C(C(=O)N1CCN(Cc2ccncc2)CC1)n1cncn1 (stereo not drawn)	-1.224	-6.853
Cc1cc2nc(CO[C@H]3CN(C(=O)C4CC4)C[C@H]3F)[nH]c2cc1C	-90.57 and 17.24	-54.84
CS(=O)(=O)c1cccc(C(=O)NCCCN2CCc3ccccc3C2)c1	-8.973	-4.658
CCc1n[nH]c(=O)c(C(=O)N2CCSCC2)c1CC	7.942	0.3931
Cl.O=C(C1CC1)N1CC2(CCNCC2)C1	-28.38	-22.86
O=C(C1=NN(Cc2ccccc2)c2ccccc2S1(=O)=O)N1CCCC1	-10.98 and 5.8	-21.11
CCn1c(CN(C)C(=O)c2ccc(OC)nc2)nc2ccccc21	-14.44	13.22
CN(C)C(=O)c1nn(C)c2c1CN(Cc1ccoc1)C2	-24.68	21.34
CC(C)NC(=O)C1CCN(C(C)C(=O)N2CCc3sccc3C2)CC1 (stereo not drawn)	5.369	1.492
CN(CCO)Cc1nnc(C2CCN(C(=O)C3CCOCC3)CC2)n1C	0.8617	-10.41 and -12.91
O=C(COc1ccc2c(c1)CCC2)NCc1ccco1	-6.222	1.394
COCCN(Cc1cnn(C)c1)Cc1ccc(C)o1	-19.37	12.26
Cc1nc(CN2CC(=O)N(C)c3ccccc3C2=O)no1	21.9	-26.29
CCS(=O)(=O)Nc1cnn(Cc2cccc(F)c2)c1	-3.07	4.58
c1ccc(-c2n[nH]c(CCNc3nnc(C4CCC4)o3)n2)cc1	-4.149	-33.79
O=C1CC2(CCN(CCCF)CC2)CN1Cc1cc(F)cc(F)c1	-24.04	-5.158
CSc1nc(C2CC2)nc(C)c1C(=O)NCc1cc(C)on1	-3.675	-3.776
C[S+]([O-])CCNC(=O)N1CCSC(C)(C)C1 (stereo not drawn)	7.171	-14.02 and -8.027
O=C1CC(N2CCN(c3ccc(O)cc3)CC2)C(=O)N1Cc1cccs1 (stereo not drawn)	3.205 and 3.32	7.106
Cc1ccnc(NC(=O)c2cccc(OCc3nnnn3C)c2)c1	12.77	-1.05
Cc1cccc(CNC(=O)Nc2cc(C(F)(F)F)c[nH]c2=O)n1	-2.784	7.472

Some entries from above, unchanged:

| structure | A | B |
|---|---|---|
| `CC(C)c1cc(C2CCCN2Cc2nc(-c3ccco3)no2)no1` (stereo not drawn) | 26.64 | 0.7837 |
| `CCS(=O)(=O)Nc1cnn(Cc2cccc(F)c2)c1` | -3.07 | 4.58 |
| `CCN1CCCC1Cn1ccc2ccc(C(=O)OC)cc2c1=O` (stereo not drawn) | -14 | -6.36 and -4.842 |
| `COCC(=O)N1CCC(c2cc(C(F)(F)F)c3c(C)noc3n2)CC1` | -0.2034 | 0.2892 |